Laboratory results as given in US6887894B2, “Use of lipoic acid for improving the bioavailability of mineral salts” (BASF Aktiengesellschaft, priority 2000, dated 2005).

Assay: Study 3: Zn intake, fecal excretion and apparent absorption of zinc
Format: in vivo
Details: rats, PA-containing diets with high Zn level (20 mg/kg of diet)
Procedure: 36 male Wistar albino rats (Harlan Winkelmann, Borchen) having an initial weight of 47.0±2.63 g were randomly divided into 6 groups each of 6 animals and fed the diets specified in Table 7 (experimental design) and Section 5.2 over a period of 28 days. The animals were kept individually in Makrolon cages on stainless grids under standard conditions (22° C., 55% relative humidity, 12 hour light/dark rhythm). Feed and deionized drinking water were available to the experimental animals ad libitum. During the 2nd and 3rd experimental week (metabolism phase) feces were collected quantitatively. After completion of the experimental phase (day 28), the animals were decapitated under CO2— anesthesia, exsanguinated and the tissue to be analyzed was removed. […]
During the two-week metabolism phase, the rat feces were collected daily, adherent feed residues and other impurities were removed and the samples were stored at −20° C. At the end of the metabolism period the fecal weight was determined quantitatively and feces were then freeze-dried under vacuum over a period of 48 h (Gamma 1-20, Christ, Osterode). […]
A sample aliquot of 1.5 g or the freeze-dried and ground fecal samples was dried for 24 h at 105° C. to remove residual water and then ashed in a muffle furnace at 450° C. for 21 h. The ash residue was dissolved by acid addition and then analyzed quantitatively. […]

SMILES: O=C(O)CCCC[C@@H]1CCSS1 [Zn lipoate, Zn((R)-α-lipoate)2(H2O)2]
- Zn intake, effect of Zn lipoate supplementation: significantly higher
